{
  "source": "paper PMC6927578",
  "about": "(Archiv der Pharmazie, 2016)",
  "origin": "cited, not measured here",
  "system": "HDAC activity from HeLa cell lysates",
  "conditions": "previously reported, included for comparison ref 29; cited from earlier work",
  "data": [
    {"compound": "O=C(CCCCCCC(=O)Nc1ccccc1)NO", "note": "[SAHA, suberoylanilide hydroxamic acid]", "values": [
      {"measurement": "IC50", "value": "90 ± 4", "unit": "nM"}
    ]}
  ]
}
